Experimental data published in paper PMC10943020.

Amino acid sequences for entries named in this document (tags omitted). A change or cut given only in a name is not applied to a line headed by its entry.
UniProt P40337: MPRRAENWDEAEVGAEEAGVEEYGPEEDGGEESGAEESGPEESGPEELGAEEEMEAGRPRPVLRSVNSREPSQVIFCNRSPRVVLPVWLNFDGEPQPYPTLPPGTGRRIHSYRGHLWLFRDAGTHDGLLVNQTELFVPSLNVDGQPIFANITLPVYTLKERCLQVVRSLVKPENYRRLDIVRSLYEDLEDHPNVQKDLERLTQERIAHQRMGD

Target: GST-VHL Y111H (human) (UniProt P40337)
Test: pull-down; GST or GST-fused VHL (100 ng) on glutathione agarose beads with Flag/Strep-tagged proteins purified from 293T cells (methods: 200 ng/sample); 50 mM Tris-HCl pH 7.5, 1% Triton X-100, 150 mM NaCl, 1 mM DTT, 0.5 mM EDTA; four washes; immunoblot; both purified

binding: no binding
Substance: Flag/strep-Beclin1 (from UniProt Q14457 1-450)

No constants are given. Whether binding was seen depends on the method and setting.
